Experimental data: patent US20030144205A1
These are yes or no findings as the source states them, for the method shown. Binding seen in cells or lysates may run through a third protein. Some binding calls cover weakened binding; strength is not graded here. For some assays here: Sequences can lack the tags named with a protein. Each block holds one binder with its values, some of them ahead of it.

Experiments:
[1] = target: T1, mouse RFPL4, full-length (amino acid residues 1-287) (mouse) (UniProt Q8VH31); experiment: in vitro translation and co-immunoprecipitation
T1 sequence (looked up): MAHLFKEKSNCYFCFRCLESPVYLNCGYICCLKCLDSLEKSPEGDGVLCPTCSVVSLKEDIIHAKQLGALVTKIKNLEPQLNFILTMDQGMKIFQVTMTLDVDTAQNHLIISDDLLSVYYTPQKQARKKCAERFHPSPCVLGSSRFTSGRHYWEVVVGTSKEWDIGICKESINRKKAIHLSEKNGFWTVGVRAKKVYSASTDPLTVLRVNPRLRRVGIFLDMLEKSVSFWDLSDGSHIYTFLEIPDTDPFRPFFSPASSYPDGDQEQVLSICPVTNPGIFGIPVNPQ

[2] = target: T1, mouse RFPL4, full-length (amino acid residues 1-287) (mouse); experiment: co-immunoprecipitation of 35S-labelled proteins translated in vitro (anti-HA or anti-MYC)

binding [1]: no binding
B1: Solute carrier family 25, member 5 (SLC25A5) (protein, mouse, UniProt P51881 1-298, looked up)
chain: MTDAAVSFAKDFLAGGVAAAISKTAVAPIERVKLLLQVQHASKQITADKQYKGIIDCVVRIPKEQGVLSFWRGNLANVIRYFPTQALNFAFKDKYKQIFLGGVDKRTQFWRYFAGNLASGGAAGATSLCFVYPLDFARTRLAADVGKAGAEREFKGLGDCLVKIYKSDGIKGLYQGFNVSVQGIIIYRAAYFGIYDTAKGMLPDPKNTHIFISWMIAQSVTAVAGLTSYPFDTVRRRMMMQSGRKGTDIMYTGTLDCWRKIARDEGSKAFFKGAWSNVLRGMGGAFVLVLYDEIKKYT

binding [2]: binds
B2: ZAR1 (HA-tagged) (protein, UniProt Q80SU3 1-361, looked up)
chain: MFPASTFHPCPHPYPQATKAGDGWRFGARGCRPAPPSFLPGYRQLMAAEYVDSHQRAQLMALLSRMGPRSVSSRDAAVQVNPRRDASVQCSLGRRTLQPAGCRASPDARSGSCQPRGHAGAGRSPRSWQTVAPFSSVTFCGLSSSLEVAGGRQTPTKGEGSPASSGTREPEPREVAARKAVPQPRSEEGDVQAAGQAGWEQQPPPEDRNSVAAMQSEPGSEEPCPAAEMAQDPGDSDAPRDQASPQSTEQDKERLRFQFLEQKYGYYHCKDCKIRWESAYVWCVQGTSKVYFKQFCRVCEKSYNPYRVEDITCQSCKRTRCACPVRLRHVDPKRPHRQDLCGRCKDKRLSCDSTFSFKYII
